In all, about 320,000 compounds went through this assay and about 22,000 (6.9%) were called active. The shares of active, inactive and inconclusive entries below differ from those in the screen. The call rests on the fitted dose curve; in most records, active means well fitted inhibition curve with a large enough effect; inconclusive means small, poorly fitted or top-dose-only effect, or another doubt; inactive means no such curve, though single readings can be large or run the other way. Potencies beside an inconclusive call are fits to weak or partial responses and may not hold up.
Assay: Primary qHTS for delayed death inhibitors of the malarial parasite plastid, 96 hour incubation
Details: P. falciparum luciferase reporter growth; series mostly up to 28.7 µM
How it was run: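 Plates of compound plus infected erythrocytes (2% hematocrit, 0.05% parasitemia final) incubate 96 hours, 37 C, 5% CO2. Detection reagent added; reduced luminescence from the parasites' luciferase reporter flags inhibition.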
On the % scale 0 is the no-effect control and ±100 the full control effect; potency means the concentration at half of the fitted maximal effect.

Compound | Potency | activity change, negative = inhibition
COc1cc(NC(=O)c2ccno2)cc(C(=O)Nc2cccc(C(F)(F)F)c2)c1 | inconclusive: 18.5 µM [inhibitor, single point] | –
Cc1ccc(C(O)Cn2cc([N+](=O)[O-])nc2C)cc1 (configuration not stated) | inactive | –
OC(CNCC1CCCO1)Cn1c2ccccc2c2ccccc21 (configuration not stated) | inconclusive: 18.5 µM [inhibitor, single point] | –
Cc1cc(C)n2c(Br)c(CN3CCCC(C)C3)nc2n1 (configuration not stated) | inactive | –
CC(NC(=O)c1cc2ccccc2o1)c1cccs1 (configuration not stated) | active: 8.28 µM | –
S=C(NCc1ccccn1)Nc1ccc(Cl)cc1 | inconclusive: 0.0657 µM [inhibitor, full curve, poor fit] | –
COc1ccc2c(CCNC(=O)CN3C(=O)c4ccccc4C3=O)c[nH]c2c1 | inactive | –
COc1ccc(C(=O)CCC(=O)Nc2ccc(Cl)cc2)cc1 | inactive | –
Cc1c(C(=O)N2CCN(C)CC2)oc2c1C(=O)CC(C)(C)C2 | inconclusive: 18.5 µM [inhibitor, single point] | –
CCOC(=O)CC(=O)CSc1nc2ccc(C)cc2cc1C#N | inactive | –
O=C(Nc1nc2ccccc2[nH]1)c1ccc(F)cc1 | active: 1.47 µM | –
CCN(c1ccccc1)S(=O)(=O)c1ccc(NC(=O)c2nc(S(C)(=O)=O)ncc2Cl)cc1 | inconclusive: 11.7 µM [inhibitor, single point] | –
O=S(=O)(c1ccc(NCCCO)nc1)N1CCOCC1 | inactive | –
CSc1nnc(NC(=O)c2nc(S(=O)(=O)Cc3cccc(C)c3)ncc2Cl)s1 | inconclusive: 3.7 µM [inhibitor, partial curve] | –
CC1CC(C)(C)CC2(C1)NC(=O)N(CC(=O)N(C)Cc1nc3ccccc3c(=O)[nH]1)C2=O (configuration not stated) | inactive | –
O=C(Nc1ccc2ccccc2c1)N1CCCN(CCOc2ccccc2)CC1 | inactive | –
COc1cc(-c2n[nH]c(=S)n2-c2ccc(Br)cc2)cc(OC)c1OC | inactive | –
Cc1ccccc1-c1nc(-c2ccccn2)no1 | inconclusive: 1.04 µM [inhibitor, partial curve, poor fit] | –
O=C(NCC(O)c1ccccc1)c1cccs1 (configuration not stated) | inactive | –
Cc1ccc(-c2nc(S(=O)(=O)c3ccc(C)cc3)c(N(C)C)o2)cc1 | inconclusive: 9.28 µM [inhibitor, single point] | –
Cc1ccc(S(=O)(=O)N(C)c2ccc(OCC(=O)Nc3nc4c(ccc5ccccc54)s3)cc2)cc1 | inactive | –
CC(CN1CCCCC1)OC(=O)c1cccc(F)c1 (configuration not stated) | inactive | –
CNS(=O)(=O)c1cc(C(=O)O)ccc1OC | inconclusive: 10.4 µM [inhibitor, single point] | –
CN1C(=O)CN=C(c2ccccc2)c2cc([N+](=O)[O-])ccc21 | inconclusive: 4.78 µM [inhibitor, partial curve] | –
CC1CN=C(NCc2ccccc2Cl)S1 (configuration not stated) | inconclusive: 0.586 µM [inhibitor, full curve, poor fit] | –
CC(C)C(NC(=O)OCc1ccccc1)C(=O)OCC(=O)N1CCCCC1 (configuration not stated) | inactive | –

Two of the compounds above, as a markdown table.

| Compound | Potency | activity change, negative = inhibition |
| --- | --- | --- |
| CC(NC(=O)c1cc2ccccc2o1)c1cccs1 (configuration not stated) | active: 8.28 µM | – |
| S=C(NCc1ccccn1)Nc1ccc(Cl)cc1 | inconclusive: 0.0657 µM [inhibitor, full curve, poor fit] | – |

(further entries)

Compound | Potency | activity change, negative = inhibition
O=C(Nc1ccccc1C(F)(F)F)N1CCCCCC1 | inconclusive: 2.94 µM [inhibitor, full curve] | –
COCCn1cnnc1SCC(=O)Nc1sc2c(c1C#N)CCC2 | inconclusive: 9.28 µM [inhibitor, partial curve, poor fit] | –
COc1ccc(NC(=O)NNC(=O)c2ccccc2-n2cccc2)cc1OC | inconclusive: 2.62 µM [inhibitor, partial curve, poor fit] | –
CN(C(=O)COC(=O)c1cc(=O)[nH]c2ccccc12)C1CCCCC1 | inconclusive: 10.4 µM [inhibitor, single point] | –
CSCc1ccc(C(=O)NCc2ccc(C)cc2)cc1 | inactive | –
CCC(=O)Nc1ccc(/C(C)=N/NC(=O)c2c(-c3ccccc3Cl)noc2C)cc1 | inactive | –
O=C(NCC1CCCO1)c1ccc(NC(=O)c2ccc([N+](=O)[O-])cc2)cc1 (configuration not stated) | inconclusive: 18.5 µM [inhibitor, single point] | –
Cc1ccc(NC(=O)C2COc3ccccc3O2)cc1S(=O)(=O)N1CCOCC1 (configuration not stated) | inconclusive: 0.586 µM [inhibitor, full curve, poor fit] | –
O=S(=O)(NCc1ccco1)c1ccc(Cl)cc1Cl | inconclusive: 14.7 µM [inhibitor, single point] | –
CC(C)N1CCc2c(sc(NC(=O)c3ccc4ccccc4c3)c2C(N)=O)C1 | active: 9.28 µM | –
Cc1ccccc1OCc1nnc(SCC(=O)N2CCc3ccccc32)n1C | inconclusive: 10.4 µM [inhibitor, single point] | –
COc1ccc(C(=O)CCc2ccccc2)cc1 | inconclusive: 16.5 µM [inhibitor, single point] | –
FC(F)(F)c1cccc(N2CCC(N=CN3CCCCCC3)=N2)c1 | inconclusive: 0.657 µM [inhibitor, full curve, poor fit] | –
CC(C)N(C(=S)Nc1cccc(S(=O)(=O)N(C)C)c1)c1ccccc1 | inactive | –
CCCN1C(=O)COc2ccc(C(=O)c3ccccc3C(=O)O)cc21 | inconclusive: 18.5 µM [inhibitor, single point] | –
COc1cc2c(cc1OC)C(C)N(C(=O)c1cc(C)on1)CC2 (configuration not stated) | inactive | –
Cc1cccc(C)c1Nc1nnc(SC(C)C(=O)Nc2c(C)n(C)n(-c3ccccc3)c2=O)s1 (configuration not stated) | inconclusive: 7.38 µM [inhibitor, partial curve] | –
COC(=O)CNC(=O)C1Cc2ccccc2CN1S(=O)(=O)c1cccs1 (configuration not stated) | inactive | –
COc1ccc(C(=O)NCc2ccc(C)cc2)cc1S(=O)(=O)N1CCCC1 | inconclusive: 16.5 µM [inhibitor, single point] | –
O=S(=O)(c1ccc(SCCOc2ccc(Cl)cc2)nc1)N1CCCC1 | inconclusive: 10.4 µM [inhibitor, single point] | –
O=C(C1CC1)N1CCc2cc(Br)cc(S(=O)(=O)NCCCN3CCCC3)c21 | active: 9.28 µM | –
COc1cccc(CNc2cc(CSc3ccc(Cl)cc3)nc(C)n2)c1 | inconclusive: 11.7 µM [inhibitor, single point] | –
CCNC(=S)NNc1nc(N2CCOCC2)nc(N2CCOCC2)n1 | inconclusive: 7.38 µM [inhibitor, partial curve] | –
Clc1cccc(CN2CCC(Cc3ccccc3)CC2)c1 | inactive | –
COc1ccc(NC(=O)CN(C)C(=O)c2cccnc2Sc2ccc(C)c(C)c2)cc1 | inconclusive: 16.5 µM [inhibitor, partial curve, poor fit] | –
COP1(=O)C[C@@H](O)[C@@H](O)[C@@H](COCc2ccccc2)O1 (some centres not stated) | inactive | –

Compound | Potency | activity change, negative = inhibition
CN(CCC#N)C(=O)COC(=O)c1ccc2c(c1)C(=O)N(C1CCCCC1)C2=O | inactive | –
Cc1ccc(NC(=O)CN2CCN(C(=O)C3CCCO3)CC2)c(C)c1 (configuration not stated) | inconclusive: 4.15 µM [inhibitor, partial curve, poor fit] | –
O=C(c1cccc(S(=O)(=O)N2CCN(c3ccc(F)cc3)CC2)c1)N1CCCCCCC1 | inconclusive: 18.5 µM [inhibitor, single point] | –
CCOc1ccc(N2C(=O)CN=C2Nc2ccccc2Cl)cc1 | inactive | –
Cc1ccc(S[C@@H](CCN2CC[C@H](C(C)(C)C)CCC2=O)c2ccccc2)cc1 | inconclusive: 3.7 µM [inhibitor, full curve, poor fit] | –
Cc1ccc(CNC(=O)c2cc(-c3ccccc3)n(Cc3cc(C)no3)n2)cc1 | inconclusive: 18.5 µM [inhibitor, single point] | –
Cc1cc(C)cc(OCc2nnc(N)s2)c1 | inactive | –
c1cncc(CNCc2ccco2)c1 | inactive | –
Cc1ccc(OCCC(=O)Nc2ccc(S(=O)(=O)Nc3nccs3)cc2)cc1 | inconclusive: 16.5 µM [inhibitor, single point] | –
CC(=O)Nc1ccc(OCC(O)Cn2cnc3ccccc32)cc1 (configuration not stated) | active: 7.38 µM | –
Cn1cccc1C(=O)OCC(=O)Nc1ccc2c(c1)CCC2 | inactive | –
CN(CCCC(=O)Nc1ccc(Br)cc1F)S(=O)(=O)c1ccccc1 | active: 6.57 µM | –
COc1ccc(CCN(C)C(=O)c2cc(S(=O)(=O)N3CCCCCC3)ccc2OC)cc1OC | inconclusive: 5.86 µM [inhibitor, partial curve] | –
Cc1ccc(-c2cc(N)n(-c3ccccc3)n2)cc1 | inactive | –
O=C(Nc1ccccc1)c1cc2c(=O)c3ccccc3oc2nc1C(F)(F)F | inactive | –
CCOC(=O)C1=c2/c(=C/c3ccncc3)c(N)c(C(=O)OC)n2C(=O)C(c2ccncc2)S1 (configuration not stated) | – | inactive: -38.6% [at 5.75 µM]
Cn1c(/C=N/NC(=O)c2ccccc2)nc2ccccc21 | inconclusive: 18.5 µM [inhibitor, single point] | –
O=c1c(CN2CCN(c3cccc(Cl)c3)CC2)coc2c(Cl)cc(Cl)cc12 | inactive | –
COc1ccc(S(=O)(=O)c2nnn(-c3cccc(Cl)c3)c2N)cc1 | inconclusive: 18.5 µM [inhibitor, single point] | –
Cc1cc(Cl)ccc1NC(=S)NCc1ccccc1 | inactive | –
O=C(O)Cn1ncc2c1-c1ccoc1CC2 | inactive | –
Cc1ccc[n+](CC(O)Cn2c3ccccc3c3ccccc32)c1 (configuration not stated) | inconclusive: 0.131 µM [inhibitor, full curve, poor fit] | –
Cn1c(SCc2nc3ccccc3[nH]2)nnc1-c1cccnc1 | active: 1.85 µM | –
CC(=O)Nc1ccc(S(=O)(=O)Nc2nc3nc(-c4ccccc4)cc(-c4ccccc4)n3n2)cc1 | inconclusive: 1.47 µM [inhibitor, full curve] | –
C/C(=N\NC(=O)Cc1cccc2ccccc12)c1ccncc1 | inconclusive: 11.7 µM [inhibitor, partial curve, poor fit] | –

Grouped by structure: those above with a Cl atom
Compound | Potency | activity change, negative = inhibition
S=C(NCc1ccccn1)Nc1ccc(Cl)cc1 | inconclusive: 0.0657 µM [inhibitor, full curve, poor fit] | –
COc1ccc(C(=O)CCC(=O)Nc2ccc(Cl)cc2)cc1 | inactive | –
CCN(c1ccccc1)S(=O)(=O)c1ccc(NC(=O)c2nc(S(C)(=O)=O)ncc2Cl)cc1 | inconclusive: 11.7 µM [inhibitor, single point] | –
CSc1nnc(NC(=O)c2nc(S(=O)(=O)Cc3cccc(C)c3)ncc2Cl)s1 | inconclusive: 3.7 µM [inhibitor, partial curve] | –
CC1CN=C(NCc2ccccc2Cl)S1 (configuration not stated) | inconclusive: 0.586 µM [inhibitor, full curve, poor fit] | –
CCC(=O)Nc1ccc(/C(C)=N/NC(=O)c2c(-c3ccccc3Cl)noc2C)cc1 | inactive | –
O=S(=O)(NCc1ccco1)c1ccc(Cl)cc1Cl | inconclusive: 14.7 µM [inhibitor, single point] | –
O=S(=O)(c1ccc(SCCOc2ccc(Cl)cc2)nc1)N1CCCC1 | inconclusive: 10.4 µM [inhibitor, single point] | –
COc1cccc(CNc2cc(CSc3ccc(Cl)cc3)nc(C)n2)c1 | inconclusive: 11.7 µM [inhibitor, single point] | –
Clc1cccc(CN2CCC(Cc3ccccc3)CC2)c1 | inactive | –
CCOc1ccc(N2C(=O)CN=C2Nc2ccccc2Cl)cc1 | inactive | –
O=c1c(CN2CCN(c3cccc(Cl)c3)CC2)coc2c(Cl)cc(Cl)cc12 | inactive | –
COc1ccc(S(=O)(=O)c2nnn(-c3cccc(Cl)c3)c2N)cc1 | inconclusive: 18.5 µM [inhibitor, single point] | –
Cc1cc(Cl)ccc1NC(=S)NCc1ccccc1 | inactive | –

From PubChem BioAssay AID504834 (National Center for Advancing Translational Sciences (NCATS), 2011)
